Positions count from the first letter of the chain named. In names and notes the source's numbering stands. These are yes or no findings as the source states them, for the method shown. Some entries that bind do so weakly or less than the wild type. Tags and fused reporters may be left off the sequences shown. Values belong to the binder of their own block, whether it stands above or below them.
Molecular target: T1, GDF-11 (UniProt O95390 299-407)
T1 sequence (looked up): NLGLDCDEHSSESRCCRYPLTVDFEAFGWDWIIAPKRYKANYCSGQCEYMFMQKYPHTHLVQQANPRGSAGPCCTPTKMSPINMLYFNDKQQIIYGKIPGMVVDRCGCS
Assay: BiaCore; ligand coupled to the device, receptor-Fc flowed (reproduced from WO2006/012627)

B2: Soluble ActRIIB-Fc F82A (Fc fusion, UniProt Q13705 19-119, looked up, not shown: a dimerising Fc or GST)
chain: SGRGEAETRECIYYNANWELERTNQSGLERCEGEQDKRLHCYASWANSSGTIELVKKGCWLDDANCYDRQECVATEENPQVYFCCCEGNFCNERFTHLPEA
binding: binds

B3: Soluble ActRIIB-Fc K74A (the 13th table) (Fc fusion, UniProt Q13705 19-119, looked up, not shown: a dimerising Fc or GST)
chain: B2 chain with K56A, A64F
binding: binds

Results, then the binder that gave them:

binding: binds
B1: Soluble ActRIIB-Fc WT (64A) (Fc fusion, UniProt Q13705 19-119, looked up, not shown: a dimerising Fc or GST)
chain: B2 chain with A64F

binding: binds
B4: Soluble ActRIIB-Fc R40A (Fc fusion, UniProt Q13705 19-119, looked up, not shown: a dimerising Fc or GST)
chain: B2 chain with R22A, A64F

From patent US20220281951A1 (ACCELERON PHARMA, published 2022)
